From paper PMC7819943, “Rice protein-binding microarrays: a tool to detect cis-acting elements near promoter regions in rice”
The other results are listed elsewhere or left out.

Chains of the proteins cited; added tags and fusions are not shown.
UniProt Q0JBA9, entry or part of it: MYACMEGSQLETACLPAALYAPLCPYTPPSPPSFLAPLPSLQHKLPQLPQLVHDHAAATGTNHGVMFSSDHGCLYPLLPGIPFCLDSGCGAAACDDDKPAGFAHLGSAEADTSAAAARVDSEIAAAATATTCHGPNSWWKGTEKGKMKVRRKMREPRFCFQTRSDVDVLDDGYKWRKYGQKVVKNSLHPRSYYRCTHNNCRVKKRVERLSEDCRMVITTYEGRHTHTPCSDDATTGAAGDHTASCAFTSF

molecular target: OsWRKY34 (Oryza sativa, UniProt Q0JBA9 1-250); assay: protein-binding microarray (RPBM); PBS, 2% BSA, 51.3 ng/ul salmon testes DNA, 50 uM zinc acetate, 200 nM TF, 25 C, 1 h; high values mean tight binding; settings: protein: recombinant; tags: N-terminal polyhistidine and DsRed monomer fusion (pET32a); label: CyDye5-dUTP incorporated in the synthesized complementary strand; 3' TTTTT single-stranded linker to array surface; dsDNA, one strand shown
Summary of the method: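 Binding signal is reported as fluorescence intensity per feature (arbitrary units) from an Axon 4000B scanner. Incubation used 200 nM of each Ni–NTA-purified, N-terminally polyhistidine- and DsRed-fused transcription factor from E. coli BL21-CodonPlus on a double-stranded custom Agilent array for 1 h at 25 °C, with 50 µM zinc acetate in the buffer, followed by washing.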

Point of comparison: “CATGGCGTATTGGATGGCCGCCTCGCGTTTTGTGTCGTTCCGGAGTCACCTAGTGCAG”, binding signal 10600 fluorescence intensity (a.u.). Against it:
- CTCTTTTTATGTTAAATCCACGTATCACCCACTCTCCTTTCGGAGTCACCTAGTGCAG — lower, 8420 fluorescence intensity (a.u.)
- TCGCTCTACCCCACCACTTCCTCACACGCGGCCGTCGCCGCGGAGTCACCTAGTGCAG — lower, 8240 fluorescence intensity (a.u.)
- CTCGCCGTGTTCTTCGCTCCGCCGCCGGGCGCCGCCGGATCGGAGTCACCTAGTGCAG — lower, 8540 fluorescence intensity (a.u.)
- TGTTATATTTGTATTTGTGCTTTGCTTCTTCTAGGCTTTTCGGAGTCACCTAGTGCAG — lower, 8740 fluorescence intensity (a.u.)
- ACCACTAGGAATCATTCAATTCAATTCATGGATATCCACTCGGAGTCACCTAGTGCAG — lower, 8580 fluorescence intensity (a.u.)
- TGGTCGGACCACAACAAAATTGTTTCCGTCTATGTTTCCACGGAGTCACCTAGTGCAG — lower, 8930 fluorescence intensity (a.u.)
- TCACCGACCTCCCGCCGGTCACCGCGCTGCTCACGCCGGACGGAGTCACCTAGTGCAG — lower, 8810 fluorescence intensity (a.u.)
- GAGATCCGAGGCACTCGTTGACCCTGCGCTCCGGCGGCCGCGGAGTCACCTAGTGCAG — lower, 8360 fluorescence intensity (a.u.)
- CACATCGCTTCGCCGCCGTATCCCTTCTCTTCTTCCTCTTCGGAGTCACCTAGTGCAG — higher, 16200 fluorescence intensity (a.u.)
- CGATATCTTTCTAACGCCGCTGGTTTCACTCAATTCCGACCGGAGTCACCTAGTGCAG — lower, 8950 fluorescence intensity (a.u.)
- AATATTTGTTTCACCTGTACTGTTTCTGCTGCATGCATTCCGGAGTCACCTAGTGCAG — higher, 11300 fluorescence intensity (a.u.)
- CCGCCGCTGCCCACCAGGCACCACAGTAATTAATTTCTTTCGGAGTCACCTAGTGCAG — lower, 8350 fluorescence intensity (a.u.)
- GCAGTTTTCTAATGACCGTGTTGTTTTCGGTTATTTTTGTCGGAGTCACCTAGTGCAG — lower, 8900 fluorescence intensity (a.u.)
- GGTCCCAGCTTTTGTCATTTGTATGTGTTTGTTCAACTGGCGGAGTCACCTAGTGCAG — higher, 13400 fluorescence intensity (a.u.)
- CACACATATACTTGCTTGTATAGAAAATGTTCCTTTCGTTCGGAGTCACCTAGTGCAG — lower, 8040 fluorescence intensity (a.u.)
- CTTGGTTTTCTTGATTTCTTGGGTTCTTGGCTACTGGGGCCGGAGTCACCTAGTGCAG — lower, 9490 fluorescence intensity (a.u.)
- GTCGCCTGCAGTTCTGACCGCCAAAACACCCACTGCCTACCGGAGTCACCTAGTGCAG — lower, 8300 fluorescence intensity (a.u.)
- CTGACTTCAATTTTTCGTTGCCTTGGTTTTCTAGTTGTATCGGAGTCACCTAGTGCAG — higher, 13200 fluorescence intensity (a.u.)
- AAAAACGTCTCAATTGTAAGCTCACTATCTAACAATTTTCCGGAGTCACCTAGTGCAG — higher, 11200 fluorescence intensity (a.u.)
- CGACGGCGGCGGCTCCCTACCTCTTCCCGTCTCCTTCTTCCGGAGTCACCTAGTGCAG — lower, 8720 fluorescence intensity (a.u.)
- TAACGCATCATTTCCCGGCGCGCCATCCTCCGCTTCGAAGCGGAGTCACCTAGTGCAG — higher, 11900 fluorescence intensity (a.u.)
- TTTTTTTTTCAGACCTTGTACAAACGCATACACATATAAACGGAGTCACCTAGTGCAG — lower, 8180 fluorescence intensity (a.u.)
- GACCACACACTTGTTGGCGCCCGCGTGGATCTCTCCATCTCGGAGTCACCTAGTGCAG — lower, 8210 fluorescence intensity (a.u.)
- ACCCCGTGACTAGAAATCTTCCAGCATCAGAATATGTAATCGGAGTCACCTAGTGCAG — lower, 9320 fluorescence intensity (a.u.)
- TCTTGTCCCTGGTGTGTGGGTAGTTGCTGTTTCAGAGATGCGGAGTCACCTAGTGCAG — higher, 12500 fluorescence intensity (a.u.)
- CCCAACTCTACTCTCTCTATTTTCACGCACACGCTTCCTACGGAGTCACCTAGTGCAG — lower, 9150 fluorescence intensity (a.u.)
- GAGGGGTTTCATTGTTATTTTTGGGTAATCCAAATTTACACGGAGTCACCTAGTGCAG — higher, 16300 fluorescence intensity (a.u.)
- ATCCTACACTCAGCTGCACCCCTCCAGTAGAGCGAGCAATCGGAGTCACCTAGTGCAG — lower, 8230 fluorescence intensity (a.u.)
- GCCATCCATCGATCCATTATTATATGGCCTGGGCGCGCGCCGGAGTCACCTAGTGCAG — lower, 9140 fluorescence intensity (a.u.)
- TTCCTTTGCCTTCATATGCGTGAAATGTAGTAAGCAGTATCGGAGTCACCTAGTGCAG — lower, 8180 fluorescence intensity (a.u.)
- CCGCGAACCCTCTCACCTGACGCAACCCCGAATCTTGCCTCGGAGTCACCTAGTGCAG — lower, 8880 fluorescence intensity (a.u.)
- AAAGTCACTAATGTGGAGGGAGACGGTACCAATATCGTTTCGGAGTCACCTAGTGCAG — higher, 14900 fluorescence intensity (a.u.)
- GACAAACTGCAGCATATACACACACGTACGCACCCGCATCCGGAGTCACCTAGTGCAG — lower, 9370 fluorescence intensity (a.u.)
- GGAGGGAGAAGGTGCGGGGAGGGAGAAGTCTCGGCGCTGGCGGAGTCACCTAGTGCAG — lower, 9060 fluorescence intensity (a.u.)
- ATTCACATGCTTCAACCTGTGCGACGCCCATGACGGCCAACGGAGTCACCTAGTGCAG — lower, 10500 fluorescence intensity (a.u.)
- CCATCGATTACAATAATTTTTTTCCATACCTTACCCATCTCGGAGTCACCTAGTGCAG — lower, 8340 fluorescence intensity (a.u.)
- GTCTGGTATCTGGTTTCAGGGGCGGAGCTATGTATTAGGGCGGAGTCACCTAGTGCAG — lower, 10100 fluorescence intensity (a.u.)
- TGTTTGCTGCTGCTGCTGCTCTGCTTTTCTCTTTTTTCTTCGGAGTCACCTAGTGCAG — lower, 9490 fluorescence intensity (a.u.)
- TTTATTTTCCAGTTCTTGTATAAGACTCTGTTATTGTTCTCGGAGTCACCTAGTGCAG — lower, 10000 fluorescence intensity (a.u.)
- TTGTATGGTCCTTGATATCTGCAGTTGGAATATTTTGTTTCGGAGTCACCTAGTGCAG — lower, 9660 fluorescence intensity (a.u.)
- CACCTTGATCTGTGTCTCAGCTCTCCTATCTTCTTTGCTCCGGAGTCACCTAGTGCAG — lower, 8850 fluorescence intensity (a.u.)
